According to the supplement of paper PMC8728848:
The list shows a part of the results.

Experiments:
Experiment in all cases: glycan array binding signal (z-score within array); higher = stronger binding
Settings in all cases: glycan notation: IUPAC condensed, linker removed
[1] = target: GlcNAc(b1-3)Gal(b1-3)GalNAc
Summary of the method: (§1)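 Arrays were curated from the Consortium for Functional Glycomics database, 3228 in total, and kept only where the protein sequence was available. Binding is expressed as a within-array Z-score. This score was averaged across arrays of the same protein sequence at different concentrations or buffers and across linkers, and negative values can be read as non-binding.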

GlcNAc(b1-3)Gal(b1-4)Glc = target: GlcNAc(b1-3)Gal(b1-4)Glc
Summary of the method: as §1

[2] = target: GlcNAc(b1-3)Gal(b1-4)GlcNAc
Summary of the method: as §1

[3] = target: GlcNAc(b1-3)Gal(b1-4)GlcNAc(b1-2)Man(a1-3)[GlcNAc(b1-3)Gal(b1-4)GlcNAc(b1-2)Man(a1-6)]Man(b1-4)GlcNAc(b1-4)GlcNAc
Summary of the method: as §1

[4] = target: GlcNAc(b1-3)Gal(b1-4)GlcNAc(b1-2)Man(a1-3)[GlcNAc(b1-3)Gal(b1-4)GlcNAc(b1-2)Man(a1-6)]Man(b1-4)GlcNAc(b1-4)[Fuc(a1-6)]GlcNAc
Summary of the method: as §1

[5] = target: GlcNAc(b1-3)Gal(b1-4)GlcNAc(b1-2)[GlcNAc(b1-3)Gal(b1-4)GlcNAc(b1-6)]Man(a1-6)[GlcNAc(b1-3)Gal(b1-4)GlcNAc(b1-2)Man(a1-3)]Man(b1-4)GlcNAc(b1-4)GlcNAc
Summary of the method: as §1

[6] = target: GlcNAc(b1-3)Gal(b1-4)GlcNAc(b1-3)Gal(b1-4)GlcNAc
Summary of the method: as §1

[7] = target: GlcNAc(b1-3)Gal(b1-4)GlcNAc(b1-3)Gal(b1-4)GlcNAc(b1-2)Man(a1-3)[GlcNAc(b1-3)Gal(b1-4)GlcNAc(b1-3)Gal(b1-4)GlcNAc(b1-2)Man(a1-6)]Man(b1-4)GlcNAc(b1-4)GlcNAc
Summary of the method: as §1

[8] = target: GlcNAc(b1-3)Gal(b1-4)GlcNAc(b1-3)Gal(b1-4)GlcNAc(b1-2)Man(a1-3)[GlcNAc(b1-3)Gal(b1-4)GlcNAc(b1-3)Gal(b1-4)GlcNAc(b1-2)Man(a1-6)]Man(b1-4)GlcNAc(b1-4)[Fuc(a1-6)]GlcNAc
Summary of the method: as §1

[9] = target: GlcNAc(b1-3)Gal(b1-4)GlcNAc(b1-3)Gal(b1-4)GlcNAc(b1-2)[GlcNAc(b1-3)Gal(b1-4)GlcNAc(b1-3)Gal(b1-4)GlcNAc(b1-6)]Man(a1-6)[GlcNAc(b1-3)Gal(b1-4)GlcNAc(b1-3)Gal(b1-4)GlcNAc(b1-2)Man(a1-3)]Man(b1-4)GlcNAc(b1-4)[Fuc(a1-6)]GlcNAc
Summary of the method: as §1

[10] = target: GlcNAc(b1-3)Gal(b1-4)GlcNAc(b1-3)Gal(b1-4)GlcNAc(b1-3)Gal(b1-4)GlcNAc(b1-2)Man(a1-3)[GlcNAc(b1-3)Gal(b1-4)GlcNAc(b1-3)Gal(b1-4)GlcNAc(b1-3)Gal(b1-4)GlcNAc(b1-2)Man(a1-6)]Man(b1-4)GlcNAc(b1-4)GlcNAc
Summary of the method: as §1

[11] = target: GlcNAc(b1-3)Gal(b1-4)GlcNAc(b1-3)Gal(b1-4)GlcNAc(b1-3)Gal(b1-4)GlcNAc(b1-2)Man(a1-3)[GlcNAc(b1-3)Gal(b1-4)GlcNAc(b1-3)Gal(b1-4)GlcNAc(b1-3)Gal(b1-4)GlcNAc(b1-2)Man(a1-6)]Man(b1-4)GlcNAc(b1-4)[Fuc(a1-6)]GlcNAc
Summary of the method: as §1

[12] = target: GlcNAc(b1-3)Gal(b1-4)GlcNAc(b1-3)Gal(b1-4)GlcNAc(b1-3)Gal(b1-4)GlcNAc(b1-2)[GlcNAc(b1-3)Gal(b1-4)GlcNAc(b1-3)Gal(b1-4)GlcNAc(b1-3)Gal(b1-4)GlcNAc(b1-6)]Man(a1-6)[GlcNAc(b1-3)Gal(b1-4)GlcNAc(b1-3)Gal(b1-4)GlcNAc(b1-3)Gal(b1-4)GlcNAc(b1-2)Man(a1-3)]Man(b1-4)GlcNAc(b1-4)[Fuc(a1-6)]GlcNAc
Summary of the method: as §1

[13] = target: GlcNAc(b1-3)Gal(b1-4)GlcNAc(b1-3)Gal(b1-4)GlcNAc(b1-3)Gal(b1-4)GlcNAc(b1-3)Gal(b1-4)GlcNAc(b1-2)Man(a1-3)[GlcNAc(b1-3)Gal(b1-4)GlcNAc(b1-3)Gal(b1-4)GlcNAc(b1-3)Gal(b1-4)GlcNAc(b1-3)Gal(b1-4)GlcNAc(b1-2)Man(a1-6)]Man(b1-4)GlcNAc(b1-4)GlcNAc
Summary of the method: as §1

[14] = target: GlcNAc(b1-3)Gal(b1-4)GlcNAc(b1-3)Gal(b1-4)GlcNAc(b1-3)Gal(b1-4)GlcNAc(b1-3)Gal(b1-4)GlcNAc(b1-2)Man(a1-3)[GlcNAc(b1-3)Gal(b1-4)GlcNAc(b1-3)Gal(b1-4)GlcNAc(b1-3)Gal(b1-4)GlcNAc(b1-3)Gal(b1-4)GlcNAc(b1-2)Man(a1-6)]Man(b1-4)GlcNAc(b1-4)[Fuc(a1-6)]GlcNAc
Summary of the method: as §1

[15] = target: GlcNAc(b1-3)Gal(b1-4)GlcNAc(b1-3)Gal(b1-4)GlcNAc(b1-3)Gal(b1-4)GlcNAc(b1-3)Gal(b1-4)GlcNAc(b1-2)[GlcNAc(b1-3)Gal(b1-4)GlcNAc(b1-3)Gal(b1-4)GlcNAc(b1-3)Gal(b1-4)GlcNAc(b1-3)Gal(b1-4)GlcNAc(b1-6)]Man(a1-6)[GlcNAc(b1-3)Gal(b1-4)GlcNAc(b1-3)Gal(b1-4)GlcNAc(b1-3)Gal(b1-4)GlcNAc(b1-3)Gal(b1-4)GlcNAc(b1-2)Man(a1-3)]Man(b1-4)GlcNAc(b1-4)[Fuc(a1-6)]GlcNAc
Summary of the method: as §1

[16] = target: GlcNAc(b1-3)Gal(b1-4)GlcNAc(b1-3)Gal(b1-4)GlcNAc(b1-3)GalNAc
Summary of the method: as §1

[17] = target: GlcNAc(b1-3)Gal(b1-4)GlcNAc(b1-3)GalNAc
Summary of the method: as §1

[18] = target: GlcNAc(b1-3)Gal(b1-4)GlcNAc(b1-3)[GlcNAc(b1-3)Gal(b1-4)GlcNAc(b1-3)]GalNAc
Summary of the method: as §1

[19] = target: GlcNAc(b1-3)Gal(b1-4)GlcNAc(b1-6)[Gal(b1-3)]GalNAc
Summary of the method: as §1

[20] = target: GlcNAc(b1-3)Gal(b1-4)GlcNAc(b1-6)[GlcNAc(b1-3)Gal(b1-3)]GalNAc
Summary of the method: as §1

[21] = target: GlcNAc(b1-3)Gal(b1-4)GlcNAc(b1-6)[GlcNAc(b1-3)]Gal(b1-4)GlcNAc
Summary of the method: as §1

GlcNAc(b1-3)GalNAc = target: GlcNAc(b1-3)GalNAc
Summary of the method: as §1

GlcNAc(b1-3)Man = target: GlcNAc(b1-3)Man
Summary of the method: as §1

[22] = target: GlcNAc(b1-3)[GlcNAc(b1-4)][GlcNAc(b1-6)]GlcNAc
Summary of the method: as §1

[23] = target: GlcNAc(b1-3)[GlcNAc(b1-6)]Gal(b1-4)GlcNAc
Summary of the method: as §1

[24] = target: GlcNAc(b1-3)[GlcNAc(b1-6)]GalNAc
Summary of the method: as §1

[25] = target: GlcNAc(b1-4)Gal(b1-4)GlcNAc
Summary of the method: as §1

GlcNAc(b1-4)GlcNAc = target: GlcNAc(b1-4)GlcNAc
Summary of the method: as §1

[26] = target: GlcNAc(b1-4)GlcNAc(b1-4)GlcNAc
Summary of the method: as §1

[27] = target: GlcNAc(b1-4)GlcNAc(b1-4)GlcNAc(b1-4)GlcNAc(b1-4)GlcNAc
Summary of the method: as §1

[28] = target: GlcNAc(b1-4)GlcNAc(b1-4)GlcNAc(b1-4)GlcNAc(b1-4)GlcNAc(b1-4)GlcNAc
Summary of the method: as §1

[29] = target: GlcNAc(b1-4)[GlcNAc(b1-6)]GalNAc
Summary of the method: as §1

[30] = target: GlcNAc(b1-6)Gal(b1-4)GlcNAc
Summary of the method: as §1

GlcNAc(b1-6)GalNAc = target: GlcNAc(b1-6)GalNAc
Summary of the method: as §1

[31] = target: GlcNAc6S(b1-3)Gal(b1-4)GlcNAc
Summary of the method: as §1

Kdn(a2-3)Gal(b1-3)GalNAc = target: Kdn(a2-3)Gal(b1-3)GalNAc
Summary of the method: as §1

Kdn(a2-3)Gal(b1-3)GlcNAc = target: Kdn(a2-3)Gal(b1-3)GlcNAc
Summary of the method: as §1

Kdn(a2-3)Gal(b1-4)Glc = target: Kdn(a2-3)Gal(b1-4)Glc
Summary of the method: as §1

Kdn(a2-3)Gal(b1-4)GlcNAc = target: Kdn(a2-3)Gal(b1-4)GlcNAc
Summary of the method: as §1

[32] = target: Kdn(a2-3)Gal(b1-4)[Fuc(a1-3)]GlcNAc
Summary of the method: as §1

Kdn(a2-6)Gal(b1-4)GlcNAc = target: Kdn(a2-6)Gal(b1-4)GlcNAc
Summary of the method: as §1

[33] = target: Man(a1-2)Man(a1-2)Man(a1-3)Man
Summary of the method: as §1

[34] = target: Man(a1-2)Man(a1-2)Man(a1-6)[Man(a1-3)]Man
Summary of the method: as §1

Man(a1-2)Man(a1-3)Man = target: Man(a1-2)Man(a1-3)Man
Summary of the method: as §1

B1: DCIR1 (Mus musculus), Q9QZ15 (protein)
chain: MASEITYAEVKFKNESNSLHTYSESPAAPREKPIRDLRKPGSPSLLLTSLMLLLLLLAITFLVAFIIYFQKYSQLLEEKKAAKNIMHNELNCTKSVSPMEDKVWSCCPKDWRLFGSHCYLVPTVSSSASWNKSEENCSRMGAHLVVIQSQEEQDFITGILDTHAAYFIGLWDTGHRQWQWVDQTPYEESITFWHNGEPSSGNEKCATIIYRWKTGWGWNDISCSLKQKSVCQMKKINL
glycan array binding signal (z-score) [1]: -0.743 | glycan array binding signal (z-score) (GlcNAc(b1-3)Gal(b1-4)Glc): -0.965 | glycan array binding signal (z-score) [2]: -0.87 | glycan array binding signal (z-score) [3]: 0.294 | glycan array binding signal (z-score) [4]: 0.199 | glycan array binding signal (z-score) [5]: -0.372 | glycan array binding signal (z-score) [6]: -0.979 | glycan array binding signal (z-score) [7]: 0.855 | glycan array binding signal (z-score) [8]: -0.898 | glycan array binding signal (z-score) [9]: -0.77 | glycan array binding signal (z-score) [10]: 0.444 | glycan array binding signal (z-score) [11]: -0.473 | glycan array binding signal (z-score) [12]: -0.73 | glycan array binding signal (z-score) [13]: 0.307 | glycan array binding signal (z-score) [14]: -1.03 | glycan array binding signal (z-score) [15]: -0.786 | glycan array binding signal (z-score) [16]: -1.06 | glycan array binding signal (z-score) [17]: -0.614 | glycan array binding signal (z-score) [18]: -0.946 | glycan array binding signal (z-score) [19]: -1.06 | glycan array binding signal (z-score) [20]: -0.947 | glycan array binding signal (z-score) [21]: -1.02 | glycan array binding signal (z-score) (GlcNAc(b1-3)GalNAc): -0.881 | glycan array binding signal (z-score) (GlcNAc(b1-3)Man): -0.299 | glycan array binding signal (z-score) [22]: -0.665 | glycan array binding signal (z-score) [23]: -0.314 | glycan array binding signal (z-score) [24]: -0.343 | glycan array binding signal (z-score) [25]: -0.421 | glycan array binding signal (z-score) (GlcNAc(b1-4)GlcNAc): -0.434 | glycan array binding signal (z-score) [26]: -0.259 | glycan array binding signal (z-score) [27]: -0.376 | glycan array binding signal (z-score) [28]: 1.75 | glycan array binding signal (z-score) [29]: 0.121 | glycan array binding signal (z-score) [30]: 0.643 | glycan array binding signal (z-score) (GlcNAc(b1-6)GalNAc): 0.182 | glycan array binding signal (z-score) [31]: -0.546 | glycan array binding signal (z-score) (Kdn(a2-3)Gal(b1-3)GalNAc): -0.193 | glycan array binding signal (z-score) (Kdn(a2-3)Gal(b1-3)GlcNAc): -0.781 | glycan array binding signal (z-score) (Kdn(a2-3)Gal(b1-4)Glc): -0.178 | glycan array binding signal (z-score) (Kdn(a2-3)Gal(b1-4)GlcNAc): -0.687 | glycan array binding signal (z-score) [32]: 2.92 | glycan array binding signal (z-score) (Kdn(a2-6)Gal(b1-4)GlcNAc): -0.687 | glycan array binding signal (z-score) [33]: -0.962 | glycan array binding signal (z-score) [34]: 4.44 | glycan array binding signal (z-score) (Man(a1-2)Man(a1-3)Man): -0.644
